Laboratory results reported in the supplement of paper PMC10849652.
This is one part of the list.

Protein sequences, listed by entry. Tags and fused reporters are not part of them. Lines headed by an entry give the natural chain unless they say otherwise; changes in a name come on top.
UniProt Q01469, whole entry, looked up: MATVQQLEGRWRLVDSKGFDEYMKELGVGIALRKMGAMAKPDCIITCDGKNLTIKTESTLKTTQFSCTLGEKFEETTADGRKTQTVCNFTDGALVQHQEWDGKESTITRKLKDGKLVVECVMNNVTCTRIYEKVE
UniProt Q01780: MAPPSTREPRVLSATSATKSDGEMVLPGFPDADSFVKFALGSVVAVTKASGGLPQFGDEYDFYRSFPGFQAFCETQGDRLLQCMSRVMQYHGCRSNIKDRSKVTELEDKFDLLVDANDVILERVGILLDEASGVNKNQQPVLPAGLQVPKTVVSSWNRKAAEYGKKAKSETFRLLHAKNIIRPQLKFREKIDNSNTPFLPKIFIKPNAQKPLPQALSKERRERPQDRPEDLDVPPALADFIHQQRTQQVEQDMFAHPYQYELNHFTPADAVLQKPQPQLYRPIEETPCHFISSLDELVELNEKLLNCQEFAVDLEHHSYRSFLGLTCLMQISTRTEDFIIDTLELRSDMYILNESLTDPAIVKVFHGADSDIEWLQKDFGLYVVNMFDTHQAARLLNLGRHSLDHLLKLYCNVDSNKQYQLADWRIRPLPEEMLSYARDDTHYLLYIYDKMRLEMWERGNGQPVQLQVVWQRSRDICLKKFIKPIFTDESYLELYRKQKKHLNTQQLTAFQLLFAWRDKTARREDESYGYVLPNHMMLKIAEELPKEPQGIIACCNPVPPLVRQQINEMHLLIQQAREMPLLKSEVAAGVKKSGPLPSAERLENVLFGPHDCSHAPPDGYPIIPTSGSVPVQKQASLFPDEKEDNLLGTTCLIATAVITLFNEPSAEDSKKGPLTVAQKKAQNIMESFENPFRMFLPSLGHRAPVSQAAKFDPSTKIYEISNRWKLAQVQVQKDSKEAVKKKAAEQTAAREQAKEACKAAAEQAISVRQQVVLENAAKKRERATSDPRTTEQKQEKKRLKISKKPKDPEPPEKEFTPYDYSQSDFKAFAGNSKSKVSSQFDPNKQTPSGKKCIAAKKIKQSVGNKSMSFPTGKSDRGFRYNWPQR
UniProt Q0VG06: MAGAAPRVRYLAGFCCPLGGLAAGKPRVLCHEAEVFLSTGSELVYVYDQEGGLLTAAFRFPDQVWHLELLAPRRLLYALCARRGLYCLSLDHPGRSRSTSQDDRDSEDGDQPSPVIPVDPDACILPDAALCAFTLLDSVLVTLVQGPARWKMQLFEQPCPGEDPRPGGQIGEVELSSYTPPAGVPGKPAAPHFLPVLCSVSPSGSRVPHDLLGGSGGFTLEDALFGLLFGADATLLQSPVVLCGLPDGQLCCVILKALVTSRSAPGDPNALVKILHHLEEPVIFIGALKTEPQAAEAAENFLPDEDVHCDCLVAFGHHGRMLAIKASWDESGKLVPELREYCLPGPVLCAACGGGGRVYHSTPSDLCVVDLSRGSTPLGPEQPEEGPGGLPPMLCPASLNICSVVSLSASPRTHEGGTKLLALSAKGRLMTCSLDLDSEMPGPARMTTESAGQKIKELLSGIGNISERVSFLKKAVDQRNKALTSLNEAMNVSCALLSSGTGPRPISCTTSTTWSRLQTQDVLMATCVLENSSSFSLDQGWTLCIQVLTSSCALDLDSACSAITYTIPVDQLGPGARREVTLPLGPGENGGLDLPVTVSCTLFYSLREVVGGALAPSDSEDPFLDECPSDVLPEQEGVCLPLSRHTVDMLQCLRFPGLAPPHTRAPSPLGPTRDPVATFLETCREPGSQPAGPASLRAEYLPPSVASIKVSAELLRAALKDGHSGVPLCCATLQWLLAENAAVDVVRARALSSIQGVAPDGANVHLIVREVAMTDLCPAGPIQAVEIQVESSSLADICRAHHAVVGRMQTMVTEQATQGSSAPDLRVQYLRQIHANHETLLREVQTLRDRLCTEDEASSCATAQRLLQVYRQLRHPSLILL
UniProt Q5JUQ0: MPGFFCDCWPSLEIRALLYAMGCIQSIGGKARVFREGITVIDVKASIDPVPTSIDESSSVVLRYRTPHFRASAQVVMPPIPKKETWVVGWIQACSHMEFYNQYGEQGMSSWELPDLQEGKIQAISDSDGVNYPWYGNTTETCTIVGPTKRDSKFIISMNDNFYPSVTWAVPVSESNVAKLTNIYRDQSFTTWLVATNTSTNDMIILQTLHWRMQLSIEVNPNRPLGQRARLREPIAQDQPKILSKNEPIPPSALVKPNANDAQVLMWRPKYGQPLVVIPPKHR
UniProt Q96KR6: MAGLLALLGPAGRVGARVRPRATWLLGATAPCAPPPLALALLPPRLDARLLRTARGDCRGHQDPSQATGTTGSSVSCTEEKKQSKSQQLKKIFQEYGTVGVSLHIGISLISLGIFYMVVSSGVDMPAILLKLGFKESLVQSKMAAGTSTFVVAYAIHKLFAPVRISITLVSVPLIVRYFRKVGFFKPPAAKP
UniProt Q9Y5Q0: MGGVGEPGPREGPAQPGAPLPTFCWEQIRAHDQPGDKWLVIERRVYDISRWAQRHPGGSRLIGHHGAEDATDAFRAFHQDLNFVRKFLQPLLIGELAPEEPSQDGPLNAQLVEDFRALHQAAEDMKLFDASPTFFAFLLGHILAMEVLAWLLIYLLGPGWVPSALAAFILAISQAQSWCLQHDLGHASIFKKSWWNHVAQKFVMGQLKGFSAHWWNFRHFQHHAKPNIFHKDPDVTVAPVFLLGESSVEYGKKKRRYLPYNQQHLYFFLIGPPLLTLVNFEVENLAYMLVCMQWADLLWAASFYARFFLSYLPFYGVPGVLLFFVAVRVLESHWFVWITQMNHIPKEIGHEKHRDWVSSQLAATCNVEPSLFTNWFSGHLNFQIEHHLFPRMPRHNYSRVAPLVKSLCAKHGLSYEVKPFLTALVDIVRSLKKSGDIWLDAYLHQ
UniProt Q9UBQ6: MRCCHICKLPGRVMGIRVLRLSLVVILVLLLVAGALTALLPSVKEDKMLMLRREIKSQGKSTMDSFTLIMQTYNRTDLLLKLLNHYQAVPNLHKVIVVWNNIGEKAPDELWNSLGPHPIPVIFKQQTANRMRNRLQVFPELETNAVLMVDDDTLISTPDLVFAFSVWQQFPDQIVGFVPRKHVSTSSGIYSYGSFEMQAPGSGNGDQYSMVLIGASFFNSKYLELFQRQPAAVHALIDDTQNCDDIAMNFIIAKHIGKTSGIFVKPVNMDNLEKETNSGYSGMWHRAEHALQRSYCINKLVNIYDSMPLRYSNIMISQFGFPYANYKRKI
UniProt Q14320: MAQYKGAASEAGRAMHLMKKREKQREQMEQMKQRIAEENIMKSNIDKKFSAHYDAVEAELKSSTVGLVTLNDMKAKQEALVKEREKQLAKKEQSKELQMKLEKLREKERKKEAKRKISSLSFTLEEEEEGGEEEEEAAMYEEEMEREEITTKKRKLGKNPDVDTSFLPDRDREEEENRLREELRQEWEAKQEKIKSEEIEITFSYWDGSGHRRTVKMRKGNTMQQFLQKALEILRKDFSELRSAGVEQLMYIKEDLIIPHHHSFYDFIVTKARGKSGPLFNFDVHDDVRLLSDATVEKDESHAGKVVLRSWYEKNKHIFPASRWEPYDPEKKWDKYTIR
UniProt Q9HBU6: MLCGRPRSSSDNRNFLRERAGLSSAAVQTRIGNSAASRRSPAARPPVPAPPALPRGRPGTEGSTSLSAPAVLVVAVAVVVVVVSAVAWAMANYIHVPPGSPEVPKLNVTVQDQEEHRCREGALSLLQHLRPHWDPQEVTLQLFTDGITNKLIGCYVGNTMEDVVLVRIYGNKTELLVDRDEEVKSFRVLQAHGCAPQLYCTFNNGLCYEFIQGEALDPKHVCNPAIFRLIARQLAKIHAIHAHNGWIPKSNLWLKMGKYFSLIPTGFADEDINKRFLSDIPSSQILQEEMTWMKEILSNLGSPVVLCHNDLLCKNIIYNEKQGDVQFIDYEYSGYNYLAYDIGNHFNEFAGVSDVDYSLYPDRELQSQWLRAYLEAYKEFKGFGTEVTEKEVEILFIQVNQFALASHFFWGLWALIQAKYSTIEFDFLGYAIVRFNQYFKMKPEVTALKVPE
UniProt P15311, whole entry, looked up: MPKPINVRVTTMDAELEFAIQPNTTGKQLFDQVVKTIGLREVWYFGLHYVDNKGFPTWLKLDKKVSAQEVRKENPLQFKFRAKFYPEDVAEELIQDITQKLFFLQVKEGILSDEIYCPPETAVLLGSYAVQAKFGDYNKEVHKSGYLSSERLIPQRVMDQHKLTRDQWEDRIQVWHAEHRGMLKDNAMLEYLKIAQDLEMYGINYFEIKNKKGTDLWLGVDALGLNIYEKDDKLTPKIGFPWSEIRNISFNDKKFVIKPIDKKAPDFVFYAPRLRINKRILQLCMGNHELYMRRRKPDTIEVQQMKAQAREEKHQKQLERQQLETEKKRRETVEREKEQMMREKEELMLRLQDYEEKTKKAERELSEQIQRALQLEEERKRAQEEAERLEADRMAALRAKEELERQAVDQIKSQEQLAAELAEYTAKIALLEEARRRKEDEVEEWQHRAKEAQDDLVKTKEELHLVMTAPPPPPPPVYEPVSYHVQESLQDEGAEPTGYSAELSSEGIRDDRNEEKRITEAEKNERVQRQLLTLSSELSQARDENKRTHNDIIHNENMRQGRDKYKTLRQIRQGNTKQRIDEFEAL
UniProt O75063: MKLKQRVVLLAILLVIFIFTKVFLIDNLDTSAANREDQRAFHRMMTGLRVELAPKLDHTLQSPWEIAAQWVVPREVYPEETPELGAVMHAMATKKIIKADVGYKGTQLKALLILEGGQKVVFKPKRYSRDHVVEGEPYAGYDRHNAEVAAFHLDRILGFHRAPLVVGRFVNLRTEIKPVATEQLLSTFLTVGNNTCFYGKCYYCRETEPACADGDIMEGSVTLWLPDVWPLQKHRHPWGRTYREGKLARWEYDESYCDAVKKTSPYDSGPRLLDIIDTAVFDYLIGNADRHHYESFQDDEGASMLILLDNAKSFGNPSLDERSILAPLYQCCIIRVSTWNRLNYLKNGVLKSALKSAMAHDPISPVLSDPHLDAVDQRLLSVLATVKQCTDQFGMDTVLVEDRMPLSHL
UniProt Q9GZU8: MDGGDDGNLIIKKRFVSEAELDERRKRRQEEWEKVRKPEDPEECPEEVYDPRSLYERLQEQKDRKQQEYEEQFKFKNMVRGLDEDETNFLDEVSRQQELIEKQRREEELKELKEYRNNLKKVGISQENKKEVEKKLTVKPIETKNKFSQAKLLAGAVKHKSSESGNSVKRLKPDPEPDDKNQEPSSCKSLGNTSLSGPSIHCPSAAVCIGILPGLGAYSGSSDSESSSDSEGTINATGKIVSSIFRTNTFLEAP
UniProt Q9NQT4, whole entry, looked up: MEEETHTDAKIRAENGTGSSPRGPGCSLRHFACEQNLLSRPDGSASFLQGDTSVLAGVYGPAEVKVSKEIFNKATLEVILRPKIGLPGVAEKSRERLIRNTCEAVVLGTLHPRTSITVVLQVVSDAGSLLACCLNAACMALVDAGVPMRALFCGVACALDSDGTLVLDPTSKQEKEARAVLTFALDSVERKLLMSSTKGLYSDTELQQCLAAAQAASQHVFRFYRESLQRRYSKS
UniProt Q13868, whole entry, looked up: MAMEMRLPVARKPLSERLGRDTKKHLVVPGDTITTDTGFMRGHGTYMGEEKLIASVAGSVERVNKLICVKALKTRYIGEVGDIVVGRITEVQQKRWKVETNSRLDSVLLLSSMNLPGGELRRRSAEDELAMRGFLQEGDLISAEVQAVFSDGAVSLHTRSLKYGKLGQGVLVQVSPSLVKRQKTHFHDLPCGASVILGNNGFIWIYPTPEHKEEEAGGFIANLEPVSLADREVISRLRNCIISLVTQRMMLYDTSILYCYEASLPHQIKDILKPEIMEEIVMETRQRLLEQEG
UniProt P13804: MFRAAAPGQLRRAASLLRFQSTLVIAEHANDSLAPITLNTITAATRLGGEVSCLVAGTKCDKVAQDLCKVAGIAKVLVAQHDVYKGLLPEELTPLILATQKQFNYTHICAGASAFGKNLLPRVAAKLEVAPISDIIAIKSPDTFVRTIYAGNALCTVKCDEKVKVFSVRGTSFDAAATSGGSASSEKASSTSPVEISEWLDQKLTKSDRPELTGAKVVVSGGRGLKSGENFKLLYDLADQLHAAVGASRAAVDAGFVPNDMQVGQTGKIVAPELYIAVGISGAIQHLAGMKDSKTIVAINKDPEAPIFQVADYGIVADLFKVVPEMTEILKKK
UniProt Q96DF8: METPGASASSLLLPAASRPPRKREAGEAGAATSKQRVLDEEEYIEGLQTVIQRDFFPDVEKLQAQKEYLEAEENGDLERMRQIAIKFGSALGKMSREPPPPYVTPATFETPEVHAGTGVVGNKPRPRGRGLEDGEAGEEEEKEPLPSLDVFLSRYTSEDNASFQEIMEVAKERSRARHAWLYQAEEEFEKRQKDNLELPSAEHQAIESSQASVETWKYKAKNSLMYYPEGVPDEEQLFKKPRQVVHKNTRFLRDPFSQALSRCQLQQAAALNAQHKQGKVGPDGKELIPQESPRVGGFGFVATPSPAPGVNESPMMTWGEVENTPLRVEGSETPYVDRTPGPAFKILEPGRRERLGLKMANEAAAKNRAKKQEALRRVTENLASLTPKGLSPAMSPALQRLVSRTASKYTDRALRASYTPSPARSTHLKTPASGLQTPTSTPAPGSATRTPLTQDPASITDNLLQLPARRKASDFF

Experiments:
Assay in all cases: log2 fold change, soluble protein after heating vs DMSO (PISA); higher = thermal stabilisation; K562 lysate, 10 uM; active = over 0.2 and 3.5 SD of the protein, either way, in both replicates (recomputed)
vemurafenib = compound: CCCS(=O)(=O)Nc1ccc(F)c(C(=O)c2c[nH]c3ncc(-c4ccc(Cl)cc4)cc23)c1F [vemurafenib]
Method in brief: (§1)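 A 30 min treatment with 10 μM compound was applied to crude K562 extract at 1 mg/mL protein in PBS pH 7.4 with 1 mM MgCl2. Heating for 3 min spanned 48°C-58°C, after which aliquots were pooled, adjusted to 0.5% NP-40 at 4°C and spun at 21,000xg for 90 min. TMTpro 16plex LC-MS/MS of the supernatant, with channel sums equalised, gave values recorded as log-two fold change in thermal stability against solvent controls, from duplicates.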

[1] = compound: CCCS(=O)(=O)Nc1ccc(F)c(C(=O)c2c[nH]c3ncc(Cl)cc23)c1F
Method in brief: as §1

barasertib = compound: CCN(CCCOc1ccc2c(Nc3cc(CC(=O)Nc4cccc(F)c4)[nH]n3)ncnc2c1)CCOP(=O)(O)O [barasertib]
Method in brief: as §1

[2] = compound: CC[C@@H]1C(=O)N(C)c2cnc(Nc3ccc(C(=O)NC4CCN(C)CC4)cc3OC)nc2N1C1CCCC1
Method in brief: as §1

volasertib = compound: CC[C@@H]1C(=O)N(C)c2cnc(Nc3ccc(C(=O)N[C@H]4CC[C@H](N5CCN(CC6CC6)CC5)CC4)cc3OC)nc2N1C(C)C [volasertib]
Method in brief: as §1

[3] = compound: CCn1c(C(=O)N(C2CC2)C2CC2)cc2c3c(ncn3C)c(Nc3cc(C)n(C)n3)nc21
Method in brief: as §1

[4] = compound: CCn1cc(-c2ccnc3[nH]c(-c4cccc(CN(C)C)c4)cc23)c(-c2ccc(NC(=O)N(C)C)cc2)n1
Method in brief: as §1

[5] = compound: CN1CCC(CNc2ccc3ncc(-c4cccc(OC(F)(F)F)c4)n3n2)CC1
Method in brief: as §1

saracatinib = compound: CN1CCN(CCOc2cc(OC3CCOCC3)c3c(Nc4c(Cl)ccc5c4OCO5)ncnc3c2)CC1 [saracatinib]
Method in brief: as §1

sotrastaurin = compound: CN1CCN(c2nc(C3=C(c4c[nH]c5ccccc45)C(=O)NC3=O)c3ccccc3n2)CC1 [sotrastaurin]
Method in brief: as §1

alvocidib = compound: CN1CC[C@H](c2c(O)cc(O)c3c(=O)cc(-c4ccccc4Cl)oc23)[C@H](O)C1 [alvocidib]
Method in brief: as §1

Tubastatin A = compound: CN1CCc2c(c3ccccc3n2Cc2ccc(C(=O)NO)cc2)C1 [Tubastatin A]
Method in brief: as §1

[6] = compound: CNC(=O)C1=CC=CC=C1NC2=NC(=NC=C2Cl)NC3=C(C=C(C=C3)N4CCOCC4)OC
Method in brief: as §1

defactinib = compound: CNC(=O)c1ccc(Nc2ncc(C(F)(F)F)c(NCc3nccnc3N(C)S(C)(=O)=O)n2)cc1 [defactinib]
Method in brief: as §1

[7] = compound: CNc1nc(-c2ccc3c(N)n[nH]c3c2)cc(N2C[C@@H](C(=O)NC3CCCCC3)CC[C@H]2C)n1
Method in brief: as §1

encorafenib = compound: COC(=O)N[C@@H](C)CNc1nccc(-c2cn(C(C)C)nc2-c2cc(Cl)cc(NS(C)(=O)=O)c2F)n1 [encorafenib]
Method in brief: as §1

[8] = compound: COC(=O)[C@H](CCSC)NC(=O)C1=C(C=C(C=C1)NC[C@H](CS)N)C2=CC=CC=C2
Method in brief: as §1

alisertib = compound: COc1cc(Nc2ncc3c(n2)-c2ccc(Cl)cc2C(c2c(F)cccc2OC)=NC3)ccc1C(=O)O [alisertib]
Method in brief: as §1

[9] = compound: COc1cc2nc(-c3cc(F)ccc3O)nc(N[C@@H]3CNC[C@H]3C(C)(C)O)c2cc1OC
Method in brief: as §1

gefitinib = compound: COc1cc2ncnc(Nc3ccc(F)c(Cl)c3)c2cc1OCCCN1CCOCC1 [gefitinib]
Method in brief: as §1

Measured: log2 fold change

FABP5 (UniProt Q01469)
inactive: vemurafenib -0.087 | [1] 0.01 | barasertib 0.032 | [2] -0.053 | volasertib 0.047 | [3] 0.044 | [4] 0.066 | [5] -0.052 | saracatinib -0.045 | sotrastaurin -0.11 | alvocidib 0.048 | Tubastatin A 0.055 | [6] -0.007 | defactinib -0.066 | [7] -0.11 | encorafenib -0.06 | [8] -0.015 | alisertib -0.051 | [9] -0.057 | gefitinib -0.03

EXOSC10 (UniProt Q01780)
inactive: vemurafenib 0.026 | [1] 0.021 | barasertib 0.077 | [2] 0.015 | volasertib -0.015 | [3] -0.088 | [4] -0.031 | [5] -0.065 | saracatinib 0.001 | sotrastaurin 0.029 | alvocidib -0.015 | Tubastatin A -0.027 | [6] 0.05 | defactinib -0.009 | [7] 0.102 | encorafenib -0.01 | [8] 0.059 | alisertib 0.009 | [9] 0.007 | gefitinib -0.033

FAAP100 (UniProt Q0VG06)
inactive: vemurafenib -0.104 | [1] 0.01 | barasertib -0.059 | [2] -0.035 | volasertib -0.017 | [3] 0.032 | [4] 0.053 | [5] -0.019 | saracatinib -0.144 | sotrastaurin 0.015 | alvocidib -0.045 | Tubastatin A -0.124 | [6] -0.026 | defactinib 0.079 | [7] -0.041 | encorafenib -0.034 | [8] -0.029 | alisertib -0.07 | [9] 0.023 | gefitinib 0.015

FAM78A (UniProt Q5JUQ0)
inactive: vemurafenib 0.047 | [1] -0.423 | barasertib 0.124 | [2] 0.085 | volasertib 0 | [3] -0.069 | [4] -0.064 | [5] 0.046 | saracatinib -0.236 | sotrastaurin 0.03 | alvocidib 0.049 | Tubastatin A 0.125 | [6] 0.008 | defactinib 0.003 | [7] -0.03 | encorafenib -0.019 | [8] 0.126 | alisertib -0.015 | [9] 0.118 | gefitinib -0.058

FAM210B (UniProt Q96KR6)
inactive: vemurafenib 0.125 | [1] 0.017 | barasertib 0.015 | [2] 0.047 | volasertib 0.08 | [3] -0.068 | [4] -0.088 | [5] 0.106 | saracatinib -0.02 | sotrastaurin -0.012 | alvocidib -0.023 | Tubastatin A 0.009 | [6] -0.002 | defactinib -0.092 | [7] 0.092 | encorafenib -0.017 | [8] -0.002 | alisertib 0.002 | [9] -0.022 | gefitinib 0.057

FADS3 (UniProt Q9Y5Q0)
active: [4] -0.957
inactive: vemurafenib 0.066 | [1] 0.149 | barasertib 0 | [2] 0.119 | volasertib -0.103 | [3] 0.023 | [5] 0.343 | saracatinib 0.152 | sotrastaurin -0.057 | alvocidib -0.051 | Tubastatin A 0.1 | [6] -0.047 | defactinib 0.198 | [7] -0.08 | encorafenib 0.097 | [8] 0.096 | alisertib 0 | [9] 0 | gefitinib 0.063

EXTL2 (UniProt Q9UBQ6)
inactive: vemurafenib -0.052 | [1] 0.066 | barasertib 0.057 | [2] -0.13 | volasertib 0.019 | [3] 0.03 | [4] -0.198 | [5] 0.078 | saracatinib -0.017 | sotrastaurin -0.026 | alvocidib -0.016 | Tubastatin A 0 | [6] 0.009 | defactinib 0.037 | [7] 0.104 | encorafenib 0.168 | [8] -0.048 | alisertib -0.021 | [9] -0.005 | gefitinib -0.111

FAM50A (UniProt Q14320)
inactive: vemurafenib -0.022 | [1] 0.012 | barasertib -0.02 | [2] -0.017 | volasertib 0.014 | [3] 0.004 | [4] 0.168 | [5] -0.011 | saracatinib 0.016 | sotrastaurin 0.008 | alvocidib 0.01 | Tubastatin A 0.015 | [6] 0 | defactinib -0.018 | [7] 0.001 | encorafenib 0.024 | [8] 0.011 | alisertib -0.012 | [9] 0.015 | gefitinib -0.002

ETNK1 (UniProt Q9HBU6)
inactive: vemurafenib -0.039 | [1] 0.035 | barasertib 0.059 | [2] 0.054 | volasertib -0.014 | [3] -0.019 | [4] -0.085 | [5] 0.028 | saracatinib 0.014 | sotrastaurin 0.023 | alvocidib -0.039 | Tubastatin A 0.002 | [6] -0.012 | defactinib -0.032 | [7] 0.002 | encorafenib 0.009 | [8] -0.022 | alisertib -0.087 | [9] -0.008 | gefitinib 0.052

EZR (UniProt P15311)
inactive: vemurafenib -0.021 | [1] -0.022 | barasertib -0.022 | [2] 0.009 | volasertib 0.008 | [3] 0.003 | [4] 0.125 | [5] -0.037 | saracatinib -0.012 | sotrastaurin 0 | alvocidib 0.058 | Tubastatin A 0.05 | [6] -0.012 | defactinib -0.007 | [7] 0.003 | encorafenib -0.04 | [8] 0.006 | alisertib -0.009 | [9] -0.005 | gefitinib -0.009

FAM20B (UniProt O75063)
inactive: vemurafenib 0.003 | [1] -0.019 | barasertib 0.053 | [2] 0.003 | volasertib -0.032 | [3] 0.08 | [4] 0.049 | [5] 0.012 | saracatinib -0.042 | sotrastaurin 0.016 | alvocidib 0.026 | Tubastatin A 0.04 | [6] -0.025 | defactinib -0.037 | [7] -0.018 | encorafenib 0.017 | [8] -0.03 | alisertib 0 | [9] -0.017 | gefitinib 0.019

FAM192A (UniProt Q9GZU8)
inactive: vemurafenib -0.034 | [1] 0 | barasertib -0.006 | [2] -0.021 | volasertib 0.024 | [3] 0.055 | [4] 0.005 | [5] 0.009 | saracatinib -0.014 | sotrastaurin 0.03 | alvocidib -0.032 | Tubastatin A -0.031 | [6] -0.008 | defactinib -0.035 | [7] 0.037 | encorafenib 0.046 | [8] -0.064 | alisertib -0.004 | [9] -0.004 | gefitinib 0.038

EXOSC5 (UniProt Q9NQT4)
inactive: vemurafenib 0 | [1] -0.005 | barasertib 0.026 | [2] 0.002 | volasertib 0 | [3] -0.003 | [4] -0.018 | [5] -0.024 | saracatinib 0.01 | sotrastaurin -0.004 | alvocidib -0.004 | Tubastatin A 0.048 | [6] -0.057 | defactinib 0.056 | [7] 0.011 | encorafenib 0.01 | [8] -0.017 | alisertib 0.002 | [9] 0.013 | gefitinib 0.003

EXOSC2 (UniProt Q13868)
inactive: vemurafenib 0.021 | [1] 0.009 | barasertib 0.01 | [2] 0.014 | volasertib 0.013 | [3] -0.027 | [4] -0.052 | [5] 0.046 | saracatinib 0.029 | sotrastaurin 0.03 | alvocidib -0.012 | Tubastatin A 0.047 | [6] 0.001 | defactinib -0.016 | [7] -0.018 | encorafenib -0.01 | [8] -0.027 | alisertib 0.007 | [9] 0.006 | gefitinib -0.032

ETFA (UniProt P13804)
inactive: vemurafenib -0.001 | [1] -0.015 | barasertib 0.014 | [2] -0.055 | volasertib 0.003 | [3] -0.016 | [4] -0.024 | [5] -0.038 | saracatinib -0.153 | sotrastaurin -0.031 | alvocidib 0.005 | Tubastatin A 0.002 | [6] -0.006 | defactinib -0.054 | [7] -0.041 | encorafenib -0.038 | [8] 0.02 | alisertib 0.011 | [9] -0.002 | gefitinib -0.032

2 consecutive records from above:
FAM192A (UniProt Q9GZU8)
inactive: vemurafenib -0.034 | [1] 0 | barasertib -0.006 | [2] -0.021 | volasertib 0.024 | [3] 0.055 | [4] 0.005 | [5] 0.009 | saracatinib -0.014 | sotrastaurin 0.03 | alvocidib -0.032 | Tubastatin A -0.031 | [6] -0.008 | defactinib -0.035 | [7] 0.037 | encorafenib 0.046 | [8] -0.064 | alisertib -0.004 | [9] -0.004 | gefitinib 0.038

EXOSC5 (UniProt Q9NQT4)
inactive: vemurafenib 0 | [1] -0.005 | barasertib 0.026 | [2] 0.002 | volasertib 0 | [3] -0.003 | [4] -0.018 | [5] -0.024 | saracatinib 0.01 | sotrastaurin -0.004 | alvocidib -0.004 | Tubastatin A 0.048 | [6] -0.057 | defactinib 0.056 | [7] 0.011 | encorafenib 0.01 | [8] -0.017 | alisertib 0.002 | [9] 0.013 | gefitinib 0.003

More records.

ESS2 (UniProt Q96DF8)
inactive: vemurafenib 0 | [1] 0.003 | barasertib -0.019 | [2] 0.135 | volasertib 0.014 | [3] 0.028 | [4] -0.014 | [5] 0.049 | saracatinib -0.011 | sotrastaurin -0.02 | alvocidib 0.001 | Tubastatin A -0.014 | [6] 0.069 | defactinib 0.019 | [7] 0.046 | encorafenib 0.054 | [8] 0.004 | alisertib -0.011 | [9] -0.021 | gefitinib -0.027
